{"source": "patent US20090176995A1", "about": "“Soluble fullerene derivatives” (NATIONAL UNIVERSITY CORPORATION NAGOYA INSTITUTE OF …, priority 2007, published 2009)", "key": {"[1]": {"assay": "organic thin-film solar battery cell, fullerene derivative as acceptor with P3HT as donor"}, "[2]": {"assay": "organic thin-film solar battery cell, fullerene derivative as acceptor with MEH-PPV as donor", "settings": "2 mg MEH-PPV + 8 mg acceptor in 0.5 mL o-DCB, 2000 rpm, film heated at 100° C. for 10 minutes"}, "[3]": {"settings": "P3HT 15 mg + acceptor 15 mg in 1.0 ml o-dichlorobenzene, spin coating 2000 rpm, film heated at 100° C. for 30 minutes"}, "[4]": {"settings": "P3HT, o-dichlorobenzene, 2000 rpm, film heated at 100° C. for 30 minutes"}, "[5]": {"settings": "P3HT, o-dichlorobenzene, 2000 rpm, film heated at 150° C. for 5 hours"}, "[6]": {"settings": "P3HT, o-dichlorobenzene, 2000 rpm, film heated at 150° C. for 10 hours"}, "[7]": {"settings": "P3HT, film heated at 150° C. for 30 minutes, electrodes by vapor deposition, heat treatment at 140° C. for 10 minutes"}, "[8]": {"settings": "P3HT, o-dichlorobenzene, 2000 rpm, film heated at 150° C. for 30 minutes"}, "[9]": {"settings": "P3HT, o-dichlorobenzene, 2000 rpm, film heated at 150° C. for 24 hours"}}, "note": "“And” between values parts separate entries of the source, which are not always exact repeats. Identical values can stand only once."}
{"molecule": "Dimethyl 1-(3,4-dioctyloxyphenyl)-C61-benzene-1,3-dioate", "values": [{"measurement": "Eff", "setting": "[1]; [3]", "result": 1.00, "unit": "%"}, {"measurement": "FF", "setting": "[1]; [4]", "result": 0.59}, {"measurement": "Isc", "setting": "[1]; [4]", "result": 3.13, "unit": "mA/cm^2"}, {"measurement": "Voc", "setting": "[1]; [4]", "result": 0.54, "unit": "V"}]}
{"molecule": "1-(3,4-Dioctyloxyphenyl)-1-[4-(4-iodophenoxy)butyl]C61", "values": [{"measurement": "Eff", "setting": "[1]; [3]", "result": 0.15, "unit": "%"}, {"measurement": "FF", "setting": "[1]; [4]", "result": 0.32}, {"measurement": "Isc", "setting": "[1]; [4]", "result": 1.87, "unit": "mA/cm^2"}, {"measurement": "Voc", "setting": "[1]; [4]", "result": 0.26, "unit": "V"}, {"measurement": "Eff", "setting": "[1]; [5]", "result": 0.25, "unit": "%"}, {"measurement": "FF", "setting": "[1]; [5]", "result": 0.38}, {"measurement": "Isc", "setting": "[1]; [5]", "result": 2.68, "unit": "mA/cm^2"}, {"measurement": "Voc", "setting": "[1]; [5]", "result": 0.25, "unit": "V"}]}
{"molecule": "1-(3,4-Dioctyloxyphenyl)-1-(1-phenoxybutyl)-C61", "values": [{"measurement": "Eff", "setting": "[1]; [3]", "result": 0.094, "unit": "%"}, {"measurement": "FF", "setting": "[1]; [4]", "result": 0.37}, {"measurement": "Isc", "setting": "[1]; [4]", "result": 0.95, "unit": "mA/cm^2"}, {"measurement": "Voc", "setting": "[1]; [4]", "result": 0.27, "unit": "V"}]}
{"molecule": "Methyl 1-(3,4,5-trioctyloxyphenyl)-C71-4-benzoate", "values": [{"measurement": "Eff", "setting": "[1]; [3]", "result": 1.60, "unit": "%"}, {"measurement": "FF", "setting": "[1]; [4]", "result": 0.55}, {"measurement": "Isc", "setting": "[1]; [4]", "result": 4.90, "unit": "mA/cm^2"}, {"measurement": "Voc", "setting": "[1]; [4]", "result": 0.60, "unit": "V"}, {"measurement": "Eff", "setting": "[2]", "result": 0.76, "unit": "%"}, {"measurement": "FF", "setting": "[2]", "result": 0.32}, {"measurement": "Isc", "setting": "[2]", "result": 2.84, "unit": "mA/cm^2"}, {"measurement": "Voc", "setting": "[2]", "result": 0.82, "unit": "V"}]}
{"molecule": "1-(3,4-Dioctyloxyphenyl)-1-(4-trifluoromethylsulfonylphenyl)-C61", "values": [{"measurement": "Eff", "setting": "[1]; [3]", "result": 0.86, "unit": "%"}, {"measurement": "FF", "setting": "[1]; [4]", "result": 0.43}, {"measurement": "Isc", "setting": "[1]; [4]", "result": 4.20, "unit": "mA/cm^2"}, {"measurement": "Voc", "setting": "[1]; [4]", "result": 0.48, "unit": "V"}]}
{"molecule": "CCCCCCCCOc1ccc(C2(c3ccc(C#N)cc3)C34c5c6c7c8c9c%10c(c%11c%12c3c3c%13c5c5c%14c6c6c8c8c9c9c%15c%10c%11c%10c%11c%12c3c3c%12c%13c5c5c%13c%14c6c6c8c8c9c9c%15c%10c%10c%11c3c3c%12c5c5c%13c6c8c6c9c%10c3c56)C724)cc1OCCCCCCCC", "note": "(stereo not shown) [1-(4-cyanophenyl)-1-(3,4-dioctyloxyphenyl)-C61]", "values": [{"measurement": "FF", "setting": "[1]; [4]", "result": 0.40}, {"measurement": "Isc", "setting": "[1]; [4]", "result": 4.09, "unit": "mA/cm^2"}, {"measurement": "Voc", "setting": "[1]; [4]", "result": 0.52, "unit": "V"}]}
{"molecule": "1-(3,4-Dioctyloxyphenyl)-1-[4-(2,3,4,5,6-pentafluorophenoxy)butyl]C61", "values": [{"measurement": "Eff", "setting": "[1]; [6]", "result": 0.028, "unit": "%"}, {"measurement": "FF", "setting": "[1]; [6]", "result": 0.38}, {"measurement": "Isc", "setting": "[1]; [6]", "result": 0.46, "unit": "mA/cm^2"}, {"measurement": "Voc", "setting": "[1]; [6]", "result": 0.16, "unit": "V"}]}
{"molecule": "1-(4-Methylsulfonylphenyl)-1-(3,4-dioctyloxyphenyl)-C61", "values": [{"measurement": "Eff", "setting": "[1]; [3]", "result": 1.24, "unit": "%"}, {"measurement": "FF", "setting": "[1]; [4]", "result": 0.50}, {"measurement": "Isc", "setting": "[1]; [4]", "result": 4.43, "unit": "mA/cm^2"}, {"measurement": "Voc", "setting": "[1]; [4]", "result": 0.56, "unit": "V"}]}
{"molecule": "Methyl 4-[1-(3,4-dioctyloxyphenyl)-C61]benzoate", "values": [{"measurement": "Eff", "setting": "[1]; [7]", "result": 2.12, "unit": "%"}, {"measurement": "FF", "setting": "[1]; [7]", "result": 0.63}, {"measurement": "Isc", "setting": "[1]; [7]", "result": 5.18, "unit": "mA/cm^2"}, {"measurement": "Voc", "setting": "[1]; [7]", "result": 0.65, "unit": "V"}, {"measurement": "Eff", "setting": "[1]; [8]", "result": 1.47, "unit": "%"}, {"measurement": "FF", "setting": "[1]; [8]", "result": 0.53}, {"measurement": "Isc", "setting": "[1]; [8]", "result": 4.93, "unit": "mA/cm^2"}, {"measurement": "Voc", "setting": "[1]; [8]", "result": 0.56, "unit": "V"}]}
{"molecule": "Perfluorooctylethyl Phenyl C61-4-benzoate", "values": [{"measurement": "Eff", "setting": "[1]; [3]", "result": 0.36, "unit": "%"}, {"measurement": "FF", "setting": "[1]; [4]", "result": 0.38}, {"measurement": "Isc", "setting": "[1]; [4]", "result": 2.03, "unit": "mA/cm^2"}, {"measurement": "Voc", "setting": "[1]; [4]", "result": 0.46, "unit": "V"}]}
{"molecule": "1-(3,4-Dioctyloxyphenyl)-1-(4-nitrophenyl)-C61", "values": [{"measurement": "Eff", "setting": "[1]; [3]", "result": 0.16, "unit": "%"}, {"measurement": "FF", "setting": "[1]; [4]", "result": 0.37}, {"measurement": "Isc", "setting": "[1]; [4]", "result": 2.28, "unit": "mA/cm^2"}, {"measurement": "Voc", "setting": "[1]; [4]", "result": 0.19, "unit": "V"}]}
{"molecule": "1,1′-Bis(4-hexyloxycarbonylphenyl)-C61", "values": [{"measurement": "Eff", "setting": "[1]; [3]", "result": 1.31, "unit": "%"}, {"measurement": "FF", "setting": "[1]; [4]", "result": 0.58}, {"measurement": "Isc", "setting": "[1]; [4]", "result": 3.91, "unit": "mA/cm^2"}, {"measurement": "Voc", "setting": "[1]; [4]", "result": 0.57, "unit": "V"}]}
{"molecule": "1-(Benzo[b]thiophen-2-yl)-1-[4-(2,3,4,5,6-pentafluorophenoxy)butyl]C61", "values": [{"measurement": "Eff", "setting": "[1]; [9]", "result": 0.025, "unit": "%"}, {"measurement": "FF", "setting": "[1]; [9]", "result": 0.31}, {"measurement": "Isc", "setting": "[1]; [9]", "result": 0.25, "unit": "mA/cm^2"}, {"measurement": "Voc", "setting": "[1]; [9]", "result": 0.33, "unit": "V"}]}
{"molecule": "Methyl 1-(3,4,5-Trioctyloxyphenyl)-C61-4-benzoate", "values": [{"measurement": "Eff", "setting": "[1]; [3]", "result": 1.50, "unit": "%"}, {"measurement": "FF", "setting": "[1]; [4]", "result": 0.49}, {"measurement": "Isc", "setting": "[1]; [4]", "result": 4.60, "unit": "mA/cm^2"}, {"measurement": "Voc", "setting": "[1]; [4]", "result": 0.66, "unit": "V"}]}
{"molecule": "Methyl 1-(4-Octyloxyphenyl)-C61-4-benzoate", "values": [{"measurement": "Eff", "setting": "[1]; [3]", "result": "1.05% and 0.022%"}, {"measurement": "Voc", "setting": "[1]; [4]", "result": "0.60 V and 0.49 V"}]}
{"molecule": "1,1′-bis(4-tert-butoxycarbonylphenyl)-C61", "values": [{"measurement": "Eff", "setting": "[1]; [3]", "result": 0.75, "unit": "%"}, {"measurement": "FF", "setting": "[1]; [4]", "result": 0.49}, {"measurement": "Isc", "setting": "[1]; [4]", "result": 2.97, "unit": "mA/cm^2"}, {"measurement": "Voc", "setting": "[1]; [4]", "result": 0.51, "unit": "V"}]}
{"molecule": "4-{4-[(3,4-Dioctyloxyphenyl)-C61]butoxy}benzene-1,2-dicarbonitrile", "values": [{"measurement": "Eff", "setting": "[1]; [3]", "result": 0.17, "unit": "%"}, {"measurement": "FF", "setting": "[1]; [4]", "result": 0.40}, {"measurement": "Isc", "setting": "[1]; [4]", "result": 1.31, "unit": "mA/cm^2"}, {"measurement": "Voc", "setting": "[1]; [4]", "result": 0.33, "unit": "V"}, {"measurement": "Eff", "setting": "[1]; [5]", "result": 0.24, "unit": "%"}, {"measurement": "FF", "setting": "[1]; [5]", "result": 0.39}, {"measurement": "Isc", "setting": "[1]; [5]", "result": 1.74, "unit": "mA/cm^2"}, {"measurement": "Voc", "setting": "[1]; [5]", "result": 0.35, "unit": "V"}]}
{"molecule": "3,5-Didecyloxybenzyl 4-(1-phenyl-C61)butyrate", "values": [{"measurement": "Eff", "setting": "[1]; [3]", "result": 0.16, "unit": "%"}, {"measurement": "FF", "setting": "[1]; [4]", "result": 0.37}, {"measurement": "Isc", "setting": "[1]; [4]", "result": 2.28, "unit": "mA/cm^2"}, {"measurement": "Voc", "setting": "[1]; [4]", "result": 0.19, "unit": "V"}]}
